Source: publication PMC5484788, “Development of a common carp (Cyprinus carpio) pregnane X receptor (cPXR) transactivation reporter assay and its activation by azole fungicides and pharmaceutical chemicals” (Toxicology in Vitro, 2017)

Sequences of proteins named here, by UniProt entry; tags and fusion partners are left off.
UniProt A0A1P8P0E9, entry or part of it: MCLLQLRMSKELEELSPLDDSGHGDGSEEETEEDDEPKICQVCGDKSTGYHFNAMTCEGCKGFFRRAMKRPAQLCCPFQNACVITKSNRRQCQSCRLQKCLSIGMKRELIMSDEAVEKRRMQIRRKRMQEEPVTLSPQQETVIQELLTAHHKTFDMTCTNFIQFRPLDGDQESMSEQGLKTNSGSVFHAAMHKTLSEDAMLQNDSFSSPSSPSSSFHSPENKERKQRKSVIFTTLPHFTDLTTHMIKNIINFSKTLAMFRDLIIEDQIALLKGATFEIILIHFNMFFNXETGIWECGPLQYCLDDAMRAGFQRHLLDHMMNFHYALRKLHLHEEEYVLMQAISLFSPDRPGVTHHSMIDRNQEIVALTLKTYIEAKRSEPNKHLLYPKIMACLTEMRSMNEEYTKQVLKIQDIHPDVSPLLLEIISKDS

Target: cPXR (Cyprinus carpio, UniProt A0A1P8P0E9)
Experiment: carp PXR (cPXR) luciferase transactivation reporter assay, pGL4.24-6xPXRE reporter, COS-7 cells
Experimental: For this, cDNA was reverse transcribed from 1 μg of carp liver total RNA as described above and amplified using the Advantage 2 DNA polymerase mix (Clontech) according to the manufacturer's instructions. The resulting PCR product was purified and sequenced to confirm the full sequence length and sub-cloned into pGEM-T Easy vector (Promega) following the manufacturer's recommendations. Plasmid DNA was isolated using the Wizard Plus SV minipreps DNA Purification system (Promega) according to manufacturer's instructions. […]
For transfection assays, cells were seeded in 24-well plates at 5 × 10^4 cells well^− 1 in phenol-red free DMEM (supplemented with 10% charcoal/dextran-treated foetal bovine serum (Hyclone). After 24 h, the cells were transiently transfected with 200 ng of either pcDNA3.1(+)/cPXR or pcDNA3.1(+)/hPXR, 400 ng of reporter construct (either MMTV/luc2/pGL4 (Promega) or pGL4.24-6xPXRE) and 100 ng of pRL-TK (driving the Renilla reniformis luciferase gene as an internal control to normalise for variations in transfection efficiency) using Fugene HD transfection reagent (Promega) in serum-free medium according to the manufacturer's protocol. […] Forty-eight hours after transfection, cells were lysed and the luciferase activities of the cells were measured by a chemiluminescence assay with Dual-Luciferase Reporter Assay System (Promega) according to the manufacturer's instructions. […]

| Structure (SMILES) | EC50 [nM] |
| --- | --- |
| Clc1ccccc1C(c1ccccc1)(c1ccccc1)n1ccnc1 [CTZ, clotrimazole] | 24 |
| Clc1ccc(COC(Cn2ccnc2)c2ccc(Cl)cc2Cl)c(Cl)c1 (centres unmarked) [MCZ, miconazole] | 315 |
